From PubChem BioAssay AID2685 (National Center for Advancing Translational Sciences (NCATS), 2010)
This is one part of the list. These are further read-outs of the screen, such as a control signal, another cell line or another target. No call is given for them. Compounds called inactive in the main read-out are mostly missing here. The note in brackets gives the kind of curve behind each potency; many fits are weak.

Experiment: qHTS Assay for Lipid Storage Modulators in Drosophila S3 Cells;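 for cell number change: cells counted by Cell Tracker Red CMTPX staining in the red channel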
Settings: BODIPY lipid droplet fluorescence, 18-24 h; for cell number change: measured here: cell count max response, cells fed with added oleic acid
Outline: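 Drosophila S3 cells loaded with oleic acid (400 uM, as added) and compounds at several concentrations; lipid droplets imaged by 488-nm laser-scanning cytometry, 500–530 nm intensity and object ratio to cell channel. Percent activity normalized to 20 uM Triacsin C.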

[1] = measured here: cell number channel AC50, cells fed with added oleic acid
[2] = measured here: lipid fluorescence (Fed channel) AC50, cells fed with added oleic acid

Row | Compound | cell number change | AC50 [1] | AC50 [2]
1 | COc1ccc2[nH]c3c(C)c4ccncc4c(C)c3c2c1 | -44.4% | 14.6 µM [falling, single point] | 14.6 µM [falling, partial curve]
2 | OCCN1CCN(CCOc2cccc(Cl)c2)CC1 | 8.05% |  | 
3 | COc1ccc2[nH]c(C(=O)Nc3ccc(F)cc3Br)cc2c1 | 1.65% |  | 0.164 µM [falling, full curve, poor fit]
4 | N#C/C(=C\c1ccc(-c2ccc(Br)cc2)o1)C(=O)NCCc1c[nH]c2ccccc12 | -43.5% | 6.51 µM [rising, partial curve, poor fit] | 6.51 µM [rising, partial curve, poor fit]
5 | O=[N+]([O-])c1cccnc1N1CCC(c2cc(-c3ccc(Cl)cc3)n[nH]2)CC1 |  | 1.3 µM [rising, partial curve] | 0.651 µM [rising, full curve]
6 | Cn1c(=O)c2c(nc(NCCNC(=O)c3ccco3)n2Cc2ccc(Cl)cc2Cl)n(C)c1=O | 13.4% |  | 0.291 µM [rising, partial curve, poor fit]
7 | CCOc1ccc(Cn2c(SCCCCC#N)nc3c2c(=O)n(C)c(=O)n3C)cc1OCC | -4.77% |  | 
8 | CC(C)(C)NC(=O)CN(C(=O)CS(=O)CC(=O)Nc1ccc(F)cc1)c1ccccc1F (centres undefined) | -20.1% |  | 
9 | Cc1nc2sc(C(=O)OC(C)C)c(N)c2c(C)c1C | 41.2% |  | 6.51 µM [falling, single point]
10 | COc1cc(C(=O)NCc2ccc3[nH]c(C)cc3c2)cc(OC)c1OC | 50.2% | 1.3 µM [rising, full curve] | 
11 | CCCCN(CC(O)COc1cccc(C)c1)CC(O)COc1cccc(C)c1 (centres undefined) | 32.9% | 0.411 µM [rising, partial curve, poor fit] | 6.31 µM [falling, single point]
12 | O=C1COc2ccc(C(=O)NCc3ccco3)cc2N1 |  | 0.82 µM [rising, full curve, poor fit] | 
13 | CCOC(=O)N1CCN(C(=O)CNC(=O)c2nn(-c3ccc(OC)c(OC)c3)c(=O)c3ccccc23)CC1 | 7.69% |  | 
14 | COc1ccc(C(NC(=O)c2cc(OC)ccc2OC)c2ccccc2)cc1 (centres undefined) | -7.56% |  | 3.26 µM [rising, single point]
15 | CC(C)c1nnc(NC(=O)CCS(=O)(=O)Cc2ccccc2)s1 | 15.8% |  | 29.1 µM [rising, single point]
16 | CSCCC(NC(=O)CCNC(=O)c1ccccc1Cl)c1nc2ccccc2[nH]1 (centres undefined) | 22.9% |  | 
17 | CC(C)CN1CCN=C1Nc1ccccc1 | 3.89% |  | 
18 | CC(=O)c1sc(NC(=O)c2oc3ccc(F)cc3c2C)nc1C | 28.7% |  | 16.4 µM [rising, single point]
19 | CCOC(=O)c1ccc(N2C(=O)C3CC=CCC3C2=O)cc1 (centres undefined) | 43.5% | 29.1 µM [rising, single point] | 
20 | CCOC(=O)c1cc(CO)cc(C(=O)OCC)c1 | 2.57% |  | 25.9 µM [rising, partial curve]
21 | CC1(C)O[C@@H]1COc1c2ccoc2cc2oc(=O)ccc12 | 4.57% |  | 0.517 µM [rising, full curve]
22 | Cc1ccc(NCC(=O)Nc2cccc(S(=O)(=O)N(C)C)c2)cc1S(=O)(=O)N1CCCCCC1 | 50% | 10.3 µM [rising, single point] | 
23 | Cc1c(NC(=O)C(C)OC(=O)C23CC4CC(CC(Br)(C4)C2)C3)c(=O)n(-c2ccccc2)n1C (centres undefined) | -129% | 14.6 µM [falling, partial curve, poor fit] | 18.4 µM [falling, partial curve]
24 | Cc1nc2ccccn2c1C(=O)N/N=C/c1ccc([N+](=O)[O-])o1 | -2.04% | 1.3 µM [falling, partial curve] | 0.58 µM [falling, full curve]
25 | Cc1[nH]c2ccccc2c1C(=O)C(=O)NC1CC1 | 29.2% |  | 0.651 µM [falling, partial curve, poor fit]
26 | O=C(NCc1ccco1)c1cnc2n(c1=O)CCS2 | 6.66% |  | 0.13 µM [falling, single point]
27 | CN(CC(=O)Nc1cccc(F)c1)C(=O)CN1C(=O)C2CC=CCC2C1=O (centres undefined) | -33.2% | 4.11 µM [falling, full curve, poor fit] | 4.11 µM [falling, full curve, poor fit]
28 | Cc1cccc(NC(=S)N2CCCCCC2)c1C | -6.07% |  | 0.58 µM [rising, single point]
29 | Cc1cc(C(=O)Nc2ccc(Br)cc2)cs1 | 3.78% |  | 0.58 µM [falling, single point]
30 | Cc1ccccc1NC(=O)CSc1nnc(C2CC2)n1CC1CCCO1 (centres undefined) |  | 5.17 µM [rising, partial curve, poor fit] | 6.51 µM [rising, single point]

2 entries from above, in markdown:

| Row | Compound | cell number change | AC50 [1] | AC50 [2] |
| --- | --- | --- | --- | --- |
| 21 | CC1(C)O[C@@H]1COc1c2ccoc2cc2oc(=O)ccc12 | 4.57% |  | 0.517 µM [rising, full curve] |
| 29 | Cc1cc(C(=O)Nc2ccc(Br)cc2)cs1 | 3.78% |  | 0.58 µM [falling, single point] |
